Assay results taken from PubChem BioAssay AID1671190 (National Center for Advancing Translational Sciences (NCATS), 2021).
Among all 580,000 compounds or so, about 6,100 (1.1%) were called active. Inconclusive results, whose numbers are uncertain, are shown with a selection of clear calls. The call rests on the fitted dose curve; in most records, active means well fitted inhibition curve with a large enough effect; inconclusive means small, poorly fitted or top-dose-only effect, or another doubt; inactive means no such curve, though single readings can be large or run the other way. Where the call is inconclusive, the potency comes from a doubtful curve fit.

The chains behind the UniProt entries cited, without tags or fusion partners. Where a name states a change or a piece, a line headed by the entry shows the natural chain unless it says otherwise.
UniProt P18054: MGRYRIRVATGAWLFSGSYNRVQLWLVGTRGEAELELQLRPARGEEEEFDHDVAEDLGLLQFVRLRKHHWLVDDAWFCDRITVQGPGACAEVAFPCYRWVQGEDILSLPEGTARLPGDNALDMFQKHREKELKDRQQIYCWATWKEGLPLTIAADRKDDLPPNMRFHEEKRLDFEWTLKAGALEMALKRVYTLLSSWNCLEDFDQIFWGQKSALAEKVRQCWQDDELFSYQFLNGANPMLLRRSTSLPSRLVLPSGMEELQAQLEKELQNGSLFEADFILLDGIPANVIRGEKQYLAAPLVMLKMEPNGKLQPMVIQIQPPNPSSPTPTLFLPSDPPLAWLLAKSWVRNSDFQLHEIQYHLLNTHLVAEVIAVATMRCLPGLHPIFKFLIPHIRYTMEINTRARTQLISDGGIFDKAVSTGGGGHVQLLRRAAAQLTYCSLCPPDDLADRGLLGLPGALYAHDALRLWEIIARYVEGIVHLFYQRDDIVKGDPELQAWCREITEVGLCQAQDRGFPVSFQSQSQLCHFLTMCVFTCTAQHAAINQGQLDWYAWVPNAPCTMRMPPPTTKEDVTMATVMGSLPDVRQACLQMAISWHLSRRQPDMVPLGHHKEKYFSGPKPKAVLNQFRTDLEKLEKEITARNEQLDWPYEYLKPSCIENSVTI

Target: Polyunsaturated fatty acid lipoxygenase ALOX12 (Homo sapiens) (UniProt P18054)
Test: Primary qHTS assay for inhibitors of human arachidonate 12S-lipoxygenase (ALOX12): Round 2
Conditions: purified 12hLO, xylenol orange hydroperoxide absorbance; activity change, negative = inhibition: at 108 µM (top of the series) unless noted
Method in brief: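 Purified human 12hLO (150 nM final) in 25 mM Hepes, 0.01% Triton X-100, pH 7.0 was preincubated 15 min at room temperature with compound. Then 40 uM arachidonic acid was added, 30 min. Hydroperoxide was read by Fe-XO absorbance ratio 573/405 nm.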
On the % scale 0 is the no-effect control and ±100 the full control effect; potency means the concentration at half of the fitted maximal effect.

Structure (SMILES)	activity change, negative = inhibition	Potency
CC(=O)N1CCN(C(=S)c2cccc([N+](=O)[O-])c2)CC1	inactive: -28.4%	
COC(=O)C1CCN(CC(=O)Nc2sc3c(c2C#N)CCC3)CC1	inactive: 0%	
C[C@H]1[C@@H](NC(=O)Nc2cccc(C(F)(F)F)c2)CC[C@@]23CCCN2C(=O)CCC[C@@H]13	inactive: 5.84%	
COc1ccc2c(C)c(CC(=O)NC3CCS(=O)(=O)C3)c(=O)oc2c1 (stereo unspecified)	inactive: 9.77%	
COc1ccccc1-c1nn(-c2ccccc2)cc1C(=O)N1CCN(C(=O)c2ccco2)CC1	inactive: -7.06%	
O=C(Cn1ccc2ccc(Cl)cc21)Nc1ccc2c(c1)OCCO2		inconclusive: 79.4 µM [inhibitor, partial curve, poor fit]
Cc1nn(Cc2ccc(Cl)cc2Cl)c(C)c1NC(=O)NC12CC3CC(CC(C3)C1)C2	inactive: -18.7%	
COc1cc(/C=N/NC(=O)CCn2cnc(-c3ccccc3)c2-c2ccccc2)ccc1O	inactive: -3.09%	
Cc1ccsc1C(=O)c1ccccc1	inactive: 44.6%	
COc1cccc([C@@H](C)NCCCc2ccccc2Cl)c1		inconclusive: 27.3 µM [inhibitor, partial curve]
CC(C)CCNC(=O)c1ccc2c(c1)CCCN2C(=O)c1ccc(Cl)cc1		inconclusive: 39.8 µM [inhibitor, partial curve, poor fit]
COc1ccc(OCCOC(=O)Cc2coc3cc4c(cc23)CCC4)cc1		inconclusive: 44.7 µM [inhibitor, partial curve, poor fit]
O=C1C(Cl)=C(NCC2CCCO2)C(=O)N1CCc1ccccc1 (stereo unspecified)		inconclusive: 31.6 µM [inhibitor, partial curve, poor fit]
CCCOC(=O)Nc1nc2ccccc2o1	inactive: 0%	
O=C(O)C1C2CCC(O2)C1C(=O)Nc1ccc(Br)cc1F (stereo unspecified)		inconclusive: 2.24 µM [inhibitor, partial curve, poor fit]
CCN1C(=O)CC(N2CCN(c3ccc(C(=O)c4ccccc4)cc3)CC2)C1=O (stereo unspecified)	inactive: 6.2%	
CSCCC(NC(=O)/C(=C/c1ccco1)NC(=O)c1ccco1)C(=O)O (stereo unspecified)	inactive: 2.76%	
CC1(c2ccc(Cl)cc2)NC(=O)N(CC(=O)Nc2ccc3c(c2)OCO3)C1=O (stereo unspecified)		inconclusive: 79.4 µM [inhibitor, partial curve, poor fit]
CC(C)/C=N/NC(=O)c1ccc(Cl)cc1	inactive: 0.616%	
COc1ccc2c(c1)c1nc3n(c(=O)c1n2CC(=O)Nc1ccccc1)CCCS3		inconclusive: 20 µM [inhibitor, partial curve, poor fit]
CCC(=O)N1CCCC(C)(C(=O)Nc2nccc3cccnc23)C1 (stereo unspecified)		inconclusive: 100 µM [inhibitor, single point]
O=C(OCC(=O)c1c[nH]c2ccccc12)c1ccccc1C(=O)c1ccc(Cl)c([N+](=O)[O-])c1		inconclusive: 141 µM [inhibitor, single point]
COC(=O)c1cc(S(=O)(=O)N2CCOCC2)ccc1Sc1ccccc1N		inconclusive: 35.5 µM [inhibitor, partial curve, poor fit]

Structure (SMILES)	activity change, negative = inhibition	Potency
CCN1CCC(NC(=O)C23CC4CC(CC(C4)C2)C3)CC1		inconclusive: 50.1 µM [inhibitor, partial curve, poor fit]
CS(=O)(=O)N(Cc1cccnc1)C1CN(C(=O)c2cc3ccccc3[nH]2)C1	inactive: 37.7%	
CCCNC(=O)c1cc(-c2ccc(C)s2)nc2ccccc12		inconclusive: 44.7 µM [inhibitor, partial curve, poor fit]
O=C(/C=C/c1ccc(F)cc1)Nc1ccccc1-c1ccccc1	inactive: -7.52%	
CC(=O)c1ccc(NC(=O)O[C@@H]2CO[C@H]3[C@@H]2OC[C@@H]3n2nnnc2-c2ccc(-c3ccccc3)cc2)cc1	inactive: 8.86%	
Cc1ccc(/C=C/C(=O)N2CCN(Cc3ccccc3)CC2)o1	inactive: -20.1%	
Cc1[nH]c2ccccc2c1/C=C/c1nc2ccccc2c(=O)n1-c1ccc([N+](=O)[O-])cc1	inactive: 0.653%	
COc1ccccc1C(=O)NC(=Nc1nc2ccccc2o1)NC(=O)c1ccccc1OC		inconclusive: 141 µM [inhibitor, partial curve, poor fit]
Cc1ccc(-c2nnc(C3CN(C(=O)c4cnccn4)CC34CCOCC4)o2)cc1 (stereo unspecified)		inconclusive: 20 µM [inhibitor, single point]
CN1/C(=C/C(=O)C2CCC2)Sc2ccccc21	inactive: -21.4%	
CC(C)c1ccc(Nc2nc(NCc3ccco3)nc(N3CCOCC3)n2)cc1		inconclusive: 79.4 µM [inhibitor, partial curve, poor fit]
CCOc1ccc(CCNC(=O)c2cc3c(s2)-c2c(C)cccc2OC3)cc1	inactive: -13.2%	
c1ccc(CCc2nnc(CC3CCCCC3)s2)cc1		inconclusive: 25.1 µM [inhibitor, full curve]
Cc1cc(O)c2c(C)c(CC(=O)NCc3cccc(Cl)c3)c(=O)oc2c1	inactive: 47.6%	
c1ccc2c(c1)OCC(CCn1ccnc1-c1cc3n(n1)CCNC3)O2 (stereo unspecified)	inactive: 15.5%	
CC1(OC(=O)CCc2ccccc2)C(=O)C=C2C=C(c3ccc(C#N)cc3)N(C3CCCC3)C=C2C1=O (stereo unspecified)		inconclusive: 39.8 µM [inhibitor, partial curve]
CCOC(=O)Cn1cnc2scc(-c3ccccc3)c2c1=O		inconclusive: 100 µM [inhibitor, single point]
Cc1onc(COc2ccccc2O)c1Br		inconclusive: 31.6 µM [inhibitor, partial curve, poor fit]
N#Cc1ccc(SCc2ccccc2)cc1SCc1ccccc1	inactive: 13.9%	
O=C(Nc1cccc(C(F)(F)F)c1)N[C@H]1CO[C@H]2[C@@H]1OC[C@@H]2n1cc(-c2ccccc2)nn1		inconclusive: 14.1 µM [inhibitor, partial curve, poor fit]
C(=N\Nc1ccccc1)/c1ccc(N2CCOCC2)cc1		active: 14.1 µM
CCc1cc2c(COC(=O)CCNS(=O)(=O)c3cccc(C(F)(F)F)c3)cc(=O)oc2cc1O		inconclusive: 126 µM [inhibitor, single point]
CCOc1ccc(NC(=O)CCCN2C(=S)NC(C)(C)CC2C)cc1 (stereo unspecified)		inconclusive: 50.1 µM [inhibitor, partial curve, poor fit]

Three compounds already listed, ordered by formula weight, largest number first.
Structure (SMILES)	activity change, negative = inhibition	Potency
CCOc1ccc(NC(=O)CCCN2C(=S)NC(C)(C)CC2C)cc1 (stereo unspecified)		inconclusive: 50.1 µM [inhibitor, partial curve, poor fit]
CCCNC(=O)c1cc(-c2ccc(C)s2)nc2ccccc12		inconclusive: 44.7 µM [inhibitor, partial curve, poor fit]
Cc1onc(COc2ccccc2O)c1Br		inconclusive: 31.6 µM [inhibitor, partial curve, poor fit]
